# Assay: general procedure: Fmoc solid-phase peptide synthesis; Rink amide MBHA resin; pre-loaded Fmoc-Phe-2ClTrt / Fmoc-Tyr(tBu)-2-ClTrt resin 0.58 mmol/g; HBTU/HOBt/DIEA; HCTU
# Conditions: conjugation step, HPLC / UPLC
substance,measurement,value
Dop1-psi(CH2NH)-cyclo(DLys-Arg-Phe-4Pal-DTrp-Lys-Thr-Tyr),final purity (method not given),94%

# Reference: patent US9731027B2 (Ipsen Pharma S.A.S., priority 2012, dated 2017)
